{"source": "PubChem BioAssay AID1159584 (Peter MacCallum Cancer Centre, 2016)", "screen": "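Knock-downs that harm CDH1-null cells more than parental MCF10A cells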 (primary screen)", "cell system": "human MCF10A breast epithelial cells, parental and CDH1-null", "reagent": "siRNA against human genes", "measured": "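ATP luminescence (CellTiter-Glo) viability per line relative to mean mock wells over all plates, and the ratio of CDH1-null to parental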", "direction": "CDH1-null / parental viability ratio: higher = CDH1-null cells survive relatively better than parental", "note": "Shown is one part, drawn at random, of about 18,000 reagents. Not all columns of the deposit are shown. No sequences are given here. Not given: the amount of reagent, the time to read-out."}
{"target":"ALPI (alkaline phosphatase, intestinal)","CDH1-null / parental viability ratio":1.27}
{"target":"EPOR (erythropoietin receptor)","CDH1-null / parental viability ratio":0.97}
{"target":"LUM (lumican)","CDH1-null / parental viability ratio":1.15}
{"target":"PAX6 (paired box 6)","CDH1-null / parental viability ratio":1.07}
{"target":"TPPP (tubulin polymerization promoting protein)","CDH1-null / parental viability ratio":1.41}
{"target":"OR2A1 (olfactory receptor family 2 subfamily A member 1)","CDH1-null / parental viability ratio":1.18}
{"target":"TLX1NB (TLX1 neighbor)","CDH1-null / parental viability ratio":1.05}
{"target":"IL23A (interleukin 23 subunit alpha)","CDH1-null / parental viability ratio":0.88}
{"target":"ZNF367 (zinc finger protein 367)","CDH1-null / parental viability ratio":1.25}
{"target":"TANK (TRAF family member associated NFKB activator)","CDH1-null / parental viability ratio":0.98}
{"target":"PARD6G (par-6 family cell polarity regulator gamma)","CDH1-null / parental viability ratio":0.92}
{"target":"SMAGP (small cell adhesion glycoprotein)","CDH1-null / parental viability ratio":1}
{"target":"CCNA2 (cyclin A2)","CDH1-null / parental viability ratio":1.04}
{"target":"PARVA (parvin alpha)","CDH1-null / parental viability ratio":1.3}
{"target":"SGCE (sarcoglycan epsilon)","CDH1-null / parental viability ratio":0.68}
{"target":"ITM2B (integral membrane protein 2B)","CDH1-null / parental viability ratio":0.95}
{"target":"CMAS (cytidine monophosphate N-acetylneuraminic acid synthetase)","CDH1-null / parental viability ratio":0.89}
{"target":"KANK3 (KN motif and ankyrin repeat domains 3)","CDH1-null / parental viability ratio":0.83}
{"target":"ZNF277 (zinc finger protein 277)","CDH1-null / parental viability ratio":0.87}
{"target":"IRF9 (interferon regulatory factor 9)","CDH1-null / parental viability ratio":0.89}
{"target":"PLA2G2E (phospholipase A2 group IIE)","CDH1-null / parental viability ratio":0.87}
{"target":"NAB1 (NGFI-A binding protein 1)","CDH1-null / parental viability ratio":1.35}
{"target":"PPP4C (protein phosphatase 4 catalytic subunit)","CDH1-null / parental viability ratio":1.37}
{"target":"CLMB (calcimembrin)","CDH1-null / parental viability ratio":0.81}
{"target":"FKBP6 (FKBP prolyl isomerase family member 6 (inactive))","CDH1-null / parental viability ratio":0.73}
{"target":"GPSM3 (G protein signaling modulator 3)","CDH1-null / parental viability ratio":0.98}
{"target":"LINC00173 (long independently transcribed non-coding RNA 173)","CDH1-null / parental viability ratio":1.11}
{"target":"FEZF2 (FEZ family zinc finger 2)","CDH1-null / parental viability ratio":0.98}
{"target":"DGAT2L6 (diacylglycerol O-acyltransferase 2 like 6)","CDH1-null / parental viability ratio":1.02}
{"target":"ACP4 (acid phosphatase 4)","CDH1-null / parental viability ratio":1.6}
{"target":"EDN2 (endothelin 2)","CDH1-null / parental viability ratio":1.46}
{"target":"PRR35 (proline rich 35)","CDH1-null / parental viability ratio":0.97}
{"target":"KATNBL1 (katanin regulatory subunit B1 like 1)","CDH1-null / parental viability ratio":0.73}
{"target":"UBIAD1 (UbiA prenyltransferase domain containing 1)","CDH1-null / parental viability ratio":0.84}
{"target":"C20orf96 (chromosome 20 open reading frame 96)","CDH1-null / parental viability ratio":1.11}

Reformatted: 3 of the entries above.
target | CDH1-null / parental viability ratio
ZNF367 (zinc finger protein 367) | 1.25
TANK (TRAF family member associated NFKB activator) | 0.98
PARD6G (par-6 family cell polarity regulator gamma) | 0.92
